From PubChem BioAssay AID504444 (National Center for Advancing Translational Sciences (NCATS), 2011)
Several values for one entry are separate records, joined by “and”; a condition that tells them apart may be missing. Identical values can stand only once. Out of some 360,000 compounds screened, about 7,500 (2.1%) were called active. Inconclusive results, whose numbers are uncertain, are shown with a selection of clear calls. Calls come from the whole dose curve; as a rule, active = well fitted inhibition curve with a large enough effect; inconclusive = small, poorly fitted or top-dose-only effect, or effect the other way; inactive = flat fitted curve, though single readings scatter. Potencies of inconclusive entries are doubtful fits and often do not repeat.

assay: Nrf2 qHTS screen for inhibitors; conditions: A549 ARE-Fluc reporter, luciferase luminescence, 18-24 h; series mostly up to 46 µM; note: nearly all actives have a fitted effect of over 60% in size
In short: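 Cells were seeded and rested 2 h, then exposed to compounds for 18-24 h. CellTiter-Fluor was read first as a viability measure. BugLite was added 15 min before the final luminescent read of ARE-luciferase activity in A549 cells.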
Potency is the fitted concentration of half-maximal effect.

| SMILES | Potency |
| --- | --- |
| COC(=O)C(Cc1csc2ccc(Cl)cc12)NC(=O)c1ccc(Cl)cc1 (configuration not stated) | inconclusive: 23.1 µM [falling, single point] |
| COc1ccc(C(=O)c2c(C)oc3cc([N+](=O)[O-])c(O)c([N+](=O)[O-])c23)cc1 | inconclusive: 23.1 µM [falling, single point] |
| O=S(=O)(NCc1csc(-c2cccs2)n1)c1cccs1 | inconclusive: 0.0065 µM [activator, full curve, poor fit] |
| O=C(NCc1cccnc1)c1nc(-c2cccs2)no1 | inconclusive: 25.9 µM [activator, single point] |
| c1cnc2ccc3c(c2c1)COCO3 | inactive |
| CN(C)c1ccc(/C=N/N=C2/NC(=O)/C(=C/c3ccc([N+](=O)[O-])cc3)S2)cc1 | inactive |
| Cn1c(=O)c2c(SCC(=O)Nc3ccccc3F)nc(C3CC3)nc2n(C)c1=O | inconclusive: 5.17 µM [activator, partial curve, poor fit] |
| Cc1cc(C)cc(NC(=O)CCn2c(=O)c3cccn3c3ccccc32)c1 | active: 16.4 µM |
| COC(=O)[C@]1(Cc2ccccc2)N[C@H](c2ccc(-c3ccccc3)cc2)[C@@H]2C(=O)N(C)C(=O)[C@@H]21 | inconclusive: 20.6 µM [falling, partial curve, poor fit] |
| CCOC(=O)C1CCCN(C(=O)CSc2ccccc2)C1 (configuration not stated) | inconclusive: 25.9 µM [activator, single point] |
| CN1C(=O)C(O)(CC(=O)/C=C/c2ccco2)c2ccccc21 (configuration not stated) | inconclusive: 29.1 µM [activator, single point] |
| COc1cccc(C2CC(c3c(-c4ccccc4)c4cc(Cl)ccc4[nH]c3=O)=NN2S(C)(=O)=O)c1OC (configuration not stated) | inconclusive: 29.1 µM [falling, single point] |
| CCCCC(c1nnnn1CC1CCCO1)N1CCN(Cc2ccccc2)CC1 (configuration not stated) | inconclusive: 32.6 µM [activator, partial curve, poor fit] |
| O=C(NC1CCCCC1)c1cc(Cl)nc2ccccc12 | inconclusive: 32.6 µM [falling, partial curve, poor fit] |
| Cc1ccc(NC(=O)CCn2c(=O)c3cccn3c3ccccc32)cc1Cl | inactive |
| O=C(CSc1nc2ccccc2c2c1CCCC2)N1CCOCC1 | inconclusive: 8.2 µM [falling, partial curve, poor fit] |
| O=C(NCCOc1ccccc1Cl)c1cc(F)c(F)cc1Cl | inconclusive: 1.46 µM [activator, partial curve] |
| CCOc1cc(/C=C2\NC(=O)NC2=O)cc([N+](=O)[O-])c1O | inactive |
| CCn1c(SC(C)C)nnc1-c1cc(-c2ccccc2)sc1N | inconclusive: 20.6 µM [falling, single point] |
| CCCCn1c2c(c(=N)c3c1CCC3)CCC2 | active: 2.59 µM |
| CN(C)c1nc(N)nc(-c2nc3ccccc3s2)n1 | inconclusive: 1.03 µM [activator, full curve] |
| CN(c1ccccc1)c1ccc(/C=C/[N+](=O)[O-])cc1 | inactive |
| CCCCN1C(Nc2ccccc2)=NC[C@@H]1C | inactive |

| SMILES | Potency |
| --- | --- |
| COc1ccccc1C(=O)Nc1ccc2c(c1)nc(CCNC(=O)c1ccccc1)n2C | inconclusive: 2.31 µM [falling, partial curve, poor fit] |
| CC(C)(C)c1ccc(OCCOCCn2c(-c3ccc(Cl)cc3)nc3ccccc3c2=O)cc1 | inactive |
| COc1ccc(N2CCN(C(=O)CSc3nnc4n3C(C)(C)Cc3ccccc3-4)CC2)cc1 | inconclusive: 23.1 µM [falling, single point] |
| O=C(CSc1nnc(-c2cccs2)n1-c1ccccc1)N1CCCc2ccccc21 | inconclusive: 29.1 µM [falling, single point] |
| O=C(c1ccc(F)cc1)N1CCOC(c2nc(-c3ccc(F)cc3)no2)C1 (configuration not stated) | inconclusive: 29.1 µM [falling, single point] |
| CCn1c2ccccc2c2cc([N+](=O)[O-])ccc21 | inactive |
| O=c1nc2sc3ccccc3n2c(=O)n1-c1ccc(Cl)cc1 | inconclusive: 14.6 µM [activator, partial curve] |
| O=C(COC(=O)CNC(=O)c1ccccc1)Nc1cc(C(F)(F)F)ccc1Cl | inactive |
| Clc1cccc(Cl)c1CSc1nnc2ccccn12 | inconclusive: 6.51 µM [activator, full curve] |
| Cc1ccc(N(C)S(=O)(=O)c2ccc3c(c2)CC(C)N3C(=O)C2CC2)cc1 (configuration not stated) | inactive |
| C[C@H](CO)N1C[C@H](C)[C@@H](CN(C)C(=O)Nc2ccc3c(c2)OCO3)Oc2c(NC(=O)Nc3ccc(C(F)(F)F)cc3)cccc2C1=O | inconclusive: 29.1 µM [falling, single point] |
| Cc1ccc(NC(=O)Cc2ccc3c(c2)OCCO3)cc1S(=O)(=O)N1CCCCC1 | inconclusive: 23.1 µM [falling, single point] |
| Cc1ccc(OCCCCN2CCCCC2)cc1 | inconclusive: 29.1 µM [falling, single point] |
| COc1ccc(C(=O)Nc2ccc3oc(-c4cccnc4)nc3c2)cc1OC | active: 20.6 µM and active: 13 µM |
| CC(OC(=O)c1cccc(S(=O)(=O)Nc2ccccc2F)c1)C(=O)NCc1ccc2c(c1)OCO2 (configuration not stated) | inconclusive: 10.3 µM [falling, partial curve, poor fit] |
| CC(C)Sc1nnc(NC(=O)c2ccco2)s1 | inconclusive: 18.4 µM [activator, single point] |
| COc1cc(OC)cc(C(=O)Oc2ccc(/C=N/Nc3nc4ccccc4s3)cc2OC)c1 | inconclusive: 16.4 µM [activator, single point] |
| CN1C(=O)Nc2cccc3cccc1c23 | inconclusive: 16.4 µM [falling, partial curve] |
| CCOC(=O)CNC(=O)c1cc2c(=O)n3cccc(C)c3nc2n1C | inactive |
| CCc1nn2c(=O)c(S(=O)(=O)Nc3ccc(C)c(C)c3)c(C)nc2s1 | inconclusive: 2.91 µM [falling, partial curve, poor fit] |
| CCCOc1ccc(-c2c(C(=O)N/N=C/c3ccc(C)o3)nnn2-c2nonc2N)cc1 | inconclusive: 25.9 µM [falling, single point] |
| O=C(N/N=C/c1cccc2ccccc12)C(=O)N1CCCC1 | inconclusive: 6.51 µM [activator, single point] |
| CC(NC(=O)C(=O)N/N=C\c1cccc([N+](=O)[O-])c1)c1ccccc1 (configuration not stated) | inactive |

| SMILES | Potency |
| --- | --- |
| Cc1oc(C(C)(C)C)cc1C(=O)Nc1ccc(N2CCOCC2)cc1 | inconclusive: 23.1 µM [falling, partial curve, poor fit] |
| CC1CCC(n2c(=S)[nH]c3ccccc3c2=O)CC1 (configuration not stated) | inactive |
| COc1cc(OC)cc(C(=O)Nc2ccc(C(=O)c3ccncc3)cc2)c1 | inconclusive: 32.6 µM [falling, partial curve, poor fit] |
| CCN(CC)c1ccc(C=Nc2ccc(N(C)C)cc2)c(O)c1 | inconclusive: 8.2 µM [activator, partial curve] |
| CCOc1ccc(NC(=O)Cc2ccccc2)cc1 | inconclusive: 20.6 µM [activator, single point] |
| CCOC(=O)C1CCCN(S(=O)(=O)c2ccc3c4c(cccc24)C(=O)N3CC)C1 (configuration not stated) | inconclusive: 25.9 µM [falling, partial curve, poor fit] |
| O=C(CCSc1nnc(-c2ccco2)o1)Nc1ccc(Cl)cc1 | inconclusive: 18.4 µM [falling, single point] |
| CC1CCc2onc(C(=O)N3CCN(c4cccc(Cl)c4)CC3)c2C1 (configuration not stated) | inconclusive: 8.2 µM [falling, partial curve, poor fit] |
| O=C1/C(=C/c2ccccc2)SC(=S)N1CCCC(=O)N1CCCCC1CCO (configuration not stated) | inconclusive: 29.1 µM [activator, single point] |
| CC(=O)c1ccc(-n2c(=O)[nH]c(=O)c3c(N)c(C(=O)c4ccc(Cl)cc4)sc32)cc1 | inconclusive: 14.6 µM [falling, single point] |
| CCCc1cc(=O)n2[nH]cc(-c3ccc(Cl)cc3)c2n1 | active: 20.6 µM |
| Cc1cc(Br)cc2c1N(Cc1ccccc1OC(C)C)C(=O)C2=O | inactive |
| Cc1cccc(C)c1NC(=O)COC(=O)c1cc(=O)[nH]c2ccccc12 | inconclusive: 18.4 µM [activator, partial curve, poor fit] |
| Cc1ccc(OCC(=O)N(C)CC(=O)NCc2ccco2)c(Br)c1 | inconclusive: 11.6 µM [activator, partial curve] |
| CCCCOc1ccc(CSCCN=C(N)N)cc1 | inconclusive: 8.2 µM [falling, partial curve, poor fit] |
| O=S(=O)(NCC1CCCO1)c1ccc(-c2ccc(S(=O)(=O)NCC3CCCO3)cc2)cc1 (configuration not stated) | active: 1.3 µM |
| O=C1/C(=C\c2cc(Br)cc(Br)c2O)SC(=S)N1Cc1ccccc1 | inconclusive: 18.4 µM [falling, single point] |
| COc1ccccc1CNC(=O)C(CC(C)C)NC(=O)C1CCC(C)CC1 (configuration not stated) | inconclusive: 14.6 µM [activator, partial curve] |
| CCOC(=O)c1sc(NC(=O)CC)c(C#N)c1C | inconclusive: 2.59 µM [activator, partial curve, poor fit] |
| COc1ccc(C=NNC(=S)NC23CC4CC(CC(C4)C2)C3)cc1OC | inconclusive: 16.4 µM [falling, single point] |
| Cc1cccc(NC(=O)[C@H](Cc2c[nH]c3ccccc23)NC(=O)[C@@H]2Cc3ccccc3CN2)c1 | inconclusive: 6.51 µM [activator, partial curve] |
